According to patent publication US7807623B2, “Use of pentagastrin to inhibit gastric acid secretion or as a diuretic” (The Regents of the University of California, priority 1999, dated 2010):

Test system: Pentagastrin-Induced Gastric Acid Secretion
Assay: Continuous pentagastrin infusion model: gastric acid output after single i.v. dose
Assay type: in vivo, human
Details: 20 mg dose group
Description: After 60 min of pentagastrin infusion, subjects received a single dose of i.v. pantoprazole (20, 40, 80, or 120 mg), i.v. famotidine (20 mg), or saline placebo. […] The study protocol was approved by the UCLA Institutional Review Board and conducted according to the provisions of the Declaration of Helsinki and its amendments. Written informed consent was obtained from each participant before enrollment, and the identity of each patient was kept confidential. Each subject underwent a prestudy screening that included a physical examination, electrocardiogram (ECG), laboratory blood and urine analysis, and a pregnancy test for women. […] Subjects were excluded from the study if abnormalities in these parameters were detected. Maximum AO (MAO) were also determined during the screening period. MAO was estimated by the subcutaneous injection of PG (6 μg/kg), after which four 15-min samples were collected and analyzed (Table 1). […] The variables measured were onset of response (time until AO decreased to <10 mEq/h and remained below this level for 1 h), duration of response (time from onset until time when AO levels rose to >10 mEq/h and remained so for 1 h), and cumulative AO 15 over 24 h. […] Vital signs and electrolytes were monitored during this time. […]

Question: Which “Acid Output, Treatment Period −1-0 h” value (hour before study drug, PG infusion 1 μg/kg/h) does the source give for `NC(N)=Nc1nc(CSCCC(N)=NS(N)(=O)=O)cs1` [Famotidine, famotidine] here?
Answer: The value was 29.1 ± 15.4 mEq/h.

Question: And the “Acid Output, Screening Period (MAO)” value (screening, before study drug, after subcutaneous PG 6 μg/kg)?
Answer: Its value is 28.1 ± 7.0 mEq/h.
